In patent publication EP4724480A2:
These are yes or no findings as the source states them, for the method shown. Binding can be weak; no strength is given.

How the values were obtained:
Assay in all cases: ELISA (FIG.12)
[1] = target: Non-structural protein 1 (NSP-1, Dengue virus) (Dengue virus)
[2] = target: Basic membrane protein B (BmpB, Borrelia burgdorferi) (Borrelia burgdorferi)
[3] = target: Pilin (Streptococcus pneumoniae) (Streptococcus pneumoniae)
[4] = target: Hemagglutinin (Influenza B) (Influenza B)

Measured: binding

B1: G2-VHH (VHH)
VHH: QVQLVESGGGLVQPGGSLRLSCAASGFTMGDYAIGWFRQVPGKEREGLSYSTKNGIKAYADSVRDRFTISRENAKNTVYLQMNSLKPEDTAVYYCAASTRFGGLLVSRYDYWGQGTQVTVSS
binds: all assays above
